Test results from PubChem BioAssay AID624405 (Broad Institute, 2012).
About 250 (13%) of roughly 1,900 compounds were called active. Not shown: some 4% with an inconclusive outcome.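 How the source made its calls: active means fitted curve reaches 40% rescue activity at or below the top valid dose, in every test run; inconclusive means test runs disagree, some active and some inactive; inactive means every run misses the threshold or moves the wrong way.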 This is a selection; strong and weak results do not stand in their true shares. Entries with a potency or affinity are not part of this list.

Assay: rescue of simvastatin-induced ATP loss – cell-based, C2C12 myotubes, ATP luminescence, cherry pick, dose response (AID 624405);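 further: myotubes are challenged with simvastatin at 10 µM to lower ATP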
Details: 48 h, scaled: DMSO wells 0, geranylgeraniol wells 100; at 19.5 µM (top of the series) unless noted

Row | SMILES | rescue activity (ATP increase)
1 | N#Cc1ccc(NC(=O)c2cc(-c3cccs3)on2)cc1 | inactive: 36.1%
2 | CCCC(=O)Nc1ccc2c(c1)nc(CN1CCN(C(C)=O)CC1)n2C | inactive: 8.12%
3 | C[C@@H]1CN([C@H](C)CO)C(=O)c2cc(NC(=O)Nc3ccccc3)ccc2O[C@@H](C)CCCCO[C@@H]1CN(C)Cc1ccc(Cl)c(Cl)c1 | inactive: 0.896%
4 | CN(C)C(CNC(=O)NC1CCCCC1)c1cccnc1 (stereo unspecified) | inactive: 3.47%
5 | C[C@H]1CCCCO[C@H](CN(C)S(=O)(=O)c2cccs2)[C@@H](C)CN([C@@H](C)CO)C(=O)c2cc(NC(=O)Nc3ccc(F)cc3)ccc2O1 | inactive: -16.9%
6 | Cc1cc(C)nc(-n2nc(C)c3c(C(F)F)cc(C)nc32)n1 | inactive: 24.7%
7 | COc1cccc(C#Cc2ccc3c(c2)O[C@@H](CN(C)C(=O)CN2CCOCC2)[C@H](C)CN([C@@H](C)CO)S3(=O)=O)c1 | inactive: -12.1%
8 | C[C@H](CO)N1C[C@H](C)[C@@H](CN(C)CC2CCCCC2)Oc2ccc(NC(=O)Nc3cccc4ccccc34)cc2C1=O | inactive: 4.47%
9 | CCC(=O)N1CCc2cc(S(=O)(=O)NCCCN3CCN(Cc4ccccc4)CC3)ccc21 | inactive: 6.61%
10 | C[C@H]1CCCCO[C@H](CN(C)C(=O)C2CCCCC2)[C@@H](C)CN([C@@H](C)CO)C(=O)c2cc(NC(=O)NC3CCCCC3)ccc2O1 | inactive: 17.2% [at 21 µM]
11 | Cc1sc2nc3ccc(N4CCCCC4)nn3c(=O)c2c1C | inactive: -16.1%
12 | COc1cccc(C(=O)n2ccc(-c3cccs3)n2)c1 | inactive: 3.36%
13 | CC(C)C[C@H](NC(=O)c1[nH]cnc1C(=O)N[C@@H](Cc1ccccc1)C(=O)OCc1ccccc1)C(=O)OCc1ccccc1 | inactive: 25.9%
14 | C[C@H](CO)N1C[C@H](C)[C@H](CN(C)S(=O)(=O)c2ccccc2)Oc2ncc(C#Cc3ccc(F)cc3)cc2C1=O | inactive: -77.8% [at 21 µM]
15 | CN1CCN(c2nc3c(c(=O)n(C)c(=O)n3C)n2Cc2cccc3ccccc23)CC1 | inactive: 32.6%
16 | CCCCCC1CC(CC(=O)O)C(=O)O1 (stereo unspecified) | inactive: 17.5%
17 | C[C@H]1CN([C@@H](C)CO)S(=O)(=O)c2ccc(C3=CCCC3)cc2O[C@H]1CN(C)C(=O)Nc1ccc2c(c1)OCO2 | inactive: 8.35%
18 | O=c1[nH]c2ccccc2nc1/C=C/c1ccc(Cl)cc1 | inactive: -51.8%
19 | O=c1c2[nH]c3cccc(Cl)c3c2ncn1CCN1CCCCC1 | inactive: -3.58%
20 | C[C@@H]1CN([C@H](C)CO)C(=O)c2cc(C3=CCCCC3)cnc2O[C@@H]1CN(C)C(=O)c1ccccn1 | inactive: 5.53%
21 | CC(c1nc2ccccc2c(=O)[nH]1)N1CCN(C)CC1 (stereo unspecified) | inactive: -6.72%
22 | Cc1cccc(OCC(=O)Nc2cc(C)ccc2O)c1 | inactive: 23.5%
23 | CC1(C)CNC(=O)c2sc(NC(=O)CN3CCOCC3)nc2C1 | inactive: -18.2%
24 | C[C@@H]1CN([C@@H](C)CO)C(=O)c2cccc(N(C)C)c2O[C@@H]1CN(C)Cc1ccc(Oc2ccccc2)cc1 | inactive: 4.56%

An excerpt from above in order of SMILES length, rising:
Row | SMILES | rescue activity (ATP increase)
1 | N#Cc1ccc(NC(=O)c2cc(-c3cccs3)on2)cc1 | inactive: 36.1%
19 | O=c1c2[nH]c3cccc(Cl)c3c2ncn1CCN1CCCCC1 | inactive: -3.58%
14 | C[C@H](CO)N1C[C@H](C)[C@H](CN(C)S(=O)(=O)c2ccccc2)Oc2ncc(C#Cc3ccc(F)cc3)cc2C1=O | inactive: -77.8% [at 21 µM]

The list goes on.

Row | SMILES | rescue activity (ATP increase)
25 | Cc1nnc(NC(=O)C2CCCN(S(=O)(=O)Cc3ccccc3)C2)s1 (stereo unspecified) | inactive: 8.89%
26 | O=C(CSc1nnnn1-c1cccc2c1CCCC2)N1CCCCC1 | inactive: 5.11%
27 | C[C@H]1CN([C@@H](C)CO)C(=O)c2cc(C3=CCCCC3)cnc2O[C@H]1CN(C)C(=O)C1CCOCC1 | inactive: 17.4%
28 | C[C@@H]1CN([C@H](C)CO)C(=O)Cc2cc(NC(=O)Cc3cn(C)c4ccccc34)ccc2O[C@@H]1CN(C)S(=O)(=O)c1ccc(F)cc1 | inactive: 12.3%
29 | C[C@@H]1CN([C@H](C)CO)C(=O)Cc2cc(NC(=O)Cc3cn(C)c4ccccc34)ccc2O[C@@H]1CN(C)Cc1ccc(Cl)c(Cl)c1 | inactive: 28.1%
30 | CCOC(=O)c1[nH]c2ccccc2c1NC(=O)Nc1ccc(OC)cc1 | inactive: 30.7%
31 | C[C@@H]1CN([C@@H](C)CO)C(=O)c2cc(NS(=O)(=O)c3cccs3)ccc2O[C@@H](C)CCCCO[C@@H]1CN(C)Cc1ccc(C(F)(F)F)cc1 | inactive: -11.2%
32 | C[C@H](CO)N1C[C@H](C)[C@@H](CN(C)C(=O)CCCN(C)C)OCCCC[C@H](C)Oc2ccc(NC(=O)Nc3ccc(C(F)(F)F)cc3)cc2C1=O | inactive: -8.45%
33 | CCCCSc1nc(C)cc(SCC(=O)N/N=C/c2cccc(OC)c2O)n1 | inactive: 17.1%
34 | Cc1ccc(NC(=O)CSCC(=O)Nc2ccc(N3CCOCC3)c(Cl)c2)cc1 | inactive: -21.7%
35 | CC(C)C#Cc1ccc2c(c1)O[C@@H](CN(C)C(=O)CC1CC1)[C@@H](C)CN([C@@H](C)CO)S2(=O)=O | inactive: 1.35%
36 | C[C@@H]1CCCCO[C@H](CN(C)C(=O)Cc2ccccc2)[C@@H](C)CN([C@@H](C)CO)C(=O)c2cc(NS(=O)(=O)c3cn(C)cn3)ccc2O1 | inactive: -34.5% [at 10 µM]
37 | O=C(c1cc2cc(Cl)cc(Cl)c2oc1=O)N1CCOCC1 | inactive: -3.36%
38 | COCCN=C1Sc2nc3c(C)cccc3cc2CN1Cc1ccco1 | inactive: -32.1%
39 | CCOC(=O)c1[nH]c2ccc(OC)cc2c1NC(=O)CCN1CCCC(C)C1 (stereo unspecified) | inactive: -16.5%
40 | C[C@@H]1CN([C@H](C)CO)C(=O)c2cc(NC(=O)Cc3cn(C)c4ccccc34)ccc2O[C@@H]1CN(C)S(=O)(=O)c1cccs1 | inactive: 12%
41 | C[C@H](CO)N1C[C@H](C)[C@H](CN(C)S(=O)(=O)c2ccc(Cl)cc2)Oc2c(NC(=O)C3CCCCC3)cccc2C1=O | inactive: 11.8%
42 | COc1ccc(NC(=O)Nc2ccc3c(c2)C(=O)N([C@H](C)CO)C[C@H](C)[C@@H](CN(C)Cc2ccc(C(F)(F)F)cc2)OCCCC[C@@H](C)O3)cc1 | inactive: -5.5%
43 | CC(C)(C)OC(=O)NCCCCCNC(=O)c1[nH]cnc1C(=O)N[C@@H](Cc1ccccc1)C(=O)OCc1ccccc1 | inactive: -35.6%
44 | C[C@@H]1CCCCO[C@@H](CN(C)CC2CCCCC2)[C@@H](C)CN([C@H](C)CO)C(=O)c2cc(NC(=O)NC3CCCCC3)ccc2O1 | inactive: -16.5%
45 | CC(=O)O[C@@H]1[C@H]2[C@@H](C[C@@H](C)[C@@H]3C=CC(=O)[C@@]13C)OC(=O)[C@@H]2C | inactive: -25.6%
46 | O=C(c1cccc(-c2nnc(-c3ccccc3)o2)c1)N1CCCCC1 | inactive: 21.3%
47 | O=C1c2ccccc2NC2(CCCCC2)N1c1ccc(O)cc1 | inactive: 24.1%
48 | C=CCn1cc(-c2ccccc2)cc(C#N)c1=O | inactive: 3.41%

Row | SMILES | rescue activity (ATP increase)
49 | Cn1c(=O)c2c(nc(Oc3ccccc3)n2C)n(C)c1=O | inactive: 5.18%
50 | C[C@@H]1CN([C@H](C)CO)C(=O)c2cccc(NC(=O)Nc3cccc4ccccc34)c2O[C@@H]1CN(C)C(=O)Nc1ccc(F)cc1 | inactive: -1.34%
51 | Cc1ccc(-c2nnc(OCCN3CCOCC3)c3ccccc23)cc1 | inactive: 4.83%
52 | Cc1nnc(Nc2ccc(O)cc2)[nH]c1=O | inactive: 11%
53 | COCC(=O)N1C[C@@H]2[C@H](c3ccccc31)[C@H](CO)N2Cc1ccc(OC)cc1 | inactive: -3.02%
54 | CN1C[C@@H]2[C@H](c3ccccc31)[C@H](CO)N2Cc1ccccc1 | inactive: -1.19%
55 | C[C@H](CO)N1C[C@H](C)[C@H](CN(C)C(=O)Nc2ccc(F)cc2)OCCCC[C@H](C)Oc2ccc(NC(=O)Cc3ccccc3)cc2C1=O | inactive: -7.95%
56 | COc1ccc(S(=O)(=O)Nc2ccc3c(c2)C(=O)N([C@H](C)CO)C[C@@H](C)[C@@H](CN(C)S(=O)(=O)c2ccc(F)cc2)OCCCC[C@H](C)O3)cc1 | inactive: 11.4%
57 | CC1(C)CC(NC(=O)CCC2CCCC2)CC(C)(C)N1 | inactive: 30.3%
58 | C[C@@H]1CN([C@H](C)CO)C(=O)Cc2cc(NC(=O)c3ccncc3)ccc2O[C@@H]1CN(C)Cc1ccc(Cl)c(Cl)c1 | inactive: 22.4% [at 21 µM]
59 | CCC(CCC(=O)Nc1ccn(-c2ccccc2)n1)C(=O)O (stereo unspecified) | inactive: -4.18%
60 | O=C(Cc1coc(-c2ccc(F)cc2)n1)Nc1ccccc1 | inactive: -14.8%
61 | N#CC(=C1Nc2ccccc2N1)S(=O)(=O)c1ccccc1 | inactive: 7.84%
62 | CCOC(=O)CN(C(=O)CNC(=O)c1ccco1)C(C(=O)NC1CCCCC1)c1cccs1 (stereo unspecified) | inactive: 8.81%
63 | O=C(C[C@@H]1CC[C@H]2[C@@H](COC[C@@H](O)CN2Cc2cccc(Cl)c2)O1)NCC1CCCCC1 | inactive: 20.6%
64 | C[C@H](CO)N1C[C@H](C)[C@H](CN(C)S(=O)(=O)c2ccc(F)cc2)OCCCC[C@H](C)Oc2ccc(NS(C)(=O)=O)cc2C1=O | inactive: -3.22%
65 | COc1ccc(S(=O)(=O)Nc2ccc3c(c2)C(=O)N([C@@H](C)CO)C[C@H](C)[C@H](CN(C)Cc2ccc(C(F)(F)F)cc2)O3)cc1 | inactive: 26.2%
66 | CCCNC(=O)c1c(N)n(-c2cccc(OC)c2)c2nc3ccccc3nc12 | inactive: -12.4%
67 | O=C(Nc1ccccc1)[C@@H]1[C@@H](CO)[C@@H]2Cn3c(ccc(C4=CCCCC4)c3=O)[C@@H]2N1Cc1cocn1 | inactive: -1.49%
68 | CCCNC(=O)N(C)C[C@@H]1Oc2cc(C3=CCCCC3)ccc2S(=O)(=O)N([C@@H](C)CO)C[C@@H]1C | inactive: 6.48%
69 | CCOc1ccc(OCCOCCOc2c(Cl)cccc2Cl)cc1 | inactive: 12.4%
70 | Cc1ccc(N(C(=O)Cn2nnc3ccccc32)C(C(=O)NCc2ccco2)c2ccc(C)o2)cc1 (stereo unspecified) | inactive: 65.9%
71 | CCOc1cc(NC(=O)C2CC2)c(OCC)cc1NC(=O)c1ccccn1 | inactive: 10.8%

Rewritten with tabs: entries from further up
Row	SMILES	rescue activity (ATP increase)
44	C[C@@H]1CCCCO[C@@H](CN(C)CC2CCCCC2)[C@@H](C)CN([C@H](C)CO)C(=O)c2cc(NC(=O)NC3CCCCC3)ccc2O1	inactive: -16.5%
45	CC(=O)O[C@@H]1[C@H]2[C@@H](C[C@@H](C)[C@@H]3C=CC(=O)[C@@]13C)OC(=O)[C@@H]2C	inactive: -25.6%
46	O=C(c1cccc(-c2nnc(-c3ccccc3)o2)c1)N1CCCCC1	inactive: 21.3%
47	O=C1c2ccccc2NC2(CCCCC2)N1c1ccc(O)cc1	inactive: 24.1%
48	C=CCn1cc(-c2ccccc2)cc(C#N)c1=O	inactive: 3.41%
49	Cn1c(=O)c2c(nc(Oc3ccccc3)n2C)n(C)c1=O	inactive: 5.18%
50	C[C@@H]1CN([C@H](C)CO)C(=O)c2cccc(NC(=O)Nc3cccc4ccccc34)c2O[C@@H]1CN(C)C(=O)Nc1ccc(F)cc1	inactive: -1.34%
51	Cc1ccc(-c2nnc(OCCN3CCOCC3)c3ccccc23)cc1	inactive: 4.83%
52	Cc1nnc(Nc2ccc(O)cc2)[nH]c1=O	inactive: 11%
53	COCC(=O)N1C[C@@H]2[C@H](c3ccccc31)[C@H](CO)N2Cc1ccc(OC)cc1	inactive: -3.02%
54	CN1C[C@@H]2[C@H](c3ccccc31)[C@H](CO)N2Cc1ccccc1	inactive: -1.19%
55	C[C@H](CO)N1C[C@H](C)[C@H](CN(C)C(=O)Nc2ccc(F)cc2)OCCCC[C@H](C)Oc2ccc(NC(=O)Cc3ccccc3)cc2C1=O	inactive: -7.95%
56	COc1ccc(S(=O)(=O)Nc2ccc3c(c2)C(=O)N([C@H](C)CO)C[C@@H](C)[C@@H](CN(C)S(=O)(=O)c2ccc(F)cc2)OCCCC[C@H](C)O3)cc1	inactive: 11.4%
